The list does not hold the whole screen: it is rich in T/C values a quarter to a half above the control, in often repeated tests (any T/C) and in doses without a T/C. Further doses and runs are listed elsewhere. T/C: endpoint of the treated group in % of that of the vehicle group. Schedule codes are those of the source, taken here to give the interval after Q, in days (D) or hours (H), and the number of doses after X. Some T/C values carry the count of animals alive at the toxicity check (mostly the fifth day); where none is given, no animal had died by that day. Some doses were run more than once; their values stand side by side, smallest first. Marks such as (2×) give the number of equal values in this list. Some doses have a count of surviving animals in place of a T/C: the source files T/C as zero there, which appears to mark a toxic dose or a test without result, not a measured value. Counts of survivors are from the toxicity check (mostly the fifth day) where no day follows; animals may have died later.

For the test, the system named is BDF1 mice, colon carcinoma 38 sc, T/C %. Put plainly: NCI In Vivo Anticancer Drug Screen. Data for tumor model Colon Carcinoma 38 (subcutaneous) in B6D2F1 (BDF1) mice. The settings on record: T/C endpoint: median tumor weight (est.), higher T/C = larger tumour; for T/C: evaluated on day 20. In outline: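 Ratio of survival or tumor size, compound-treated animals relative to vehicle controls, in tumor-bearing mice.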

[1] abbreviates: dose: 40.0 mg/kg/injection, schedule: Q07DX002 (ip), vehicle: sodium bicarbonate.
Setting [2] is: dose: 60.0 mg/kg/injection, schedule: Q07DX002 (ip), vehicle: sodium bicarbonate.
[3] abbreviates: dose: 90.0 mg/kg/injection, schedule: Q07DX002 (ip), vehicle: sodium bicarbonate.
Setting [4] is: dose: 135.0 mg/kg/injection, schedule: Q07DX002 (ip), vehicle: sodium bicarbonate.
Setting [5] is: dose: 200.0 mg/kg/injection, schedule: Q07DX002 (ip), vehicle: saline with Tween-80.
Where [6] appears, read: dose: 800.0 mg/kg/injection, schedule: Q07DX002 (ip), vehicle: saline with Tween-80.
The mark [7] stands for this setting: dose: 25.0 mg/kg/injection, schedule: Q07DX002 (ip), vehicle: saline with Tween-80.
The mark [8] stands for this setting: dose: 8.0 mg/kg/injection, schedule: Q07DX002 (ip), vehicle: saline.

For the compound `CN(Cc1cnc2nc(N)nc(N)c2n1)c1ccc(C(=O)N[C@@H](CCC(=O)O)C(=O)O)cc1`, the T/C (dose: 5.0 mg/kg/injection, schedule: Q07DX002 (ip), vehicle: sodium bicarbonate) is 141 % of control; the T/C (dose: 26.0 mg/kg/injection, schedule: Q07DX002 (ip), vehicle: sodium bicarbonate) was 49, 69 [9 of 10 alive on day 20], 86 [9 of 10 alive on day 20], 92, 93, 99, 114 [9 of 10 alive on day 20], 123, 124 [9 of 10 alive on day 20], 278 % of control; the T/C under setting [1] was 50 [7 of 10 alive on day 20], 71 [9 of 10 alive on day 20], 74, 76 (2×), 89 [9 of 10 alive on day 20], 91 [9 of 10 alive on day 20], 101, 112, 114 % of control; the T/C under setting [2] is 49 [9 of 10 alive on day 20], 65 [7 of 10 alive on day 20], 76 [8 of 10 alive on day 20], 85 [7 of 10 alive on day 20], 92, 96 [9 of 10 alive on day 20], 119, 119 [7 of 10 alive on day 20], 120 % of control [9 of 10 alive on day 20]; the T/C under setting [3] is 69 [8 of 10 alive on day 20], 75 [9 of 10 alive on day 20], 96, 129 % of control; the T/C under setting [4] is 34 [9 of 10 alive on day 20], 85 [9 of 10 alive on day 20], 156 % of control. For the same compound, the survivor count is, setting by setting: (dose: 20.0 mg/kg/injection, schedule: Q07DX002 (ip), vehicle: sodium bicarbonate) 4 of 10 on day 20; under setting [1], 2 of 10 on day 20; under setting [2], 2 of 10 on day 20 and 5 of 10 on day 20; under setting [3], 0 of 10 on day 20, 1 of 10 on day 20, 1 of 9 on day 20, 2 of 10 on day 20, 3 of 10 on day 20, 5 of 10 on day 20; under setting [4], 0 of 10 on day 20, 0 of 8 on day 20, 2 of 10 on day 20, 3 of 10 on day 20.

As for `CC1C2CCC3C(O)C2(CC(O)C2(O)C1CC(O)C2(C)C)CC3(C)O` (centres undefined), the T/C is, setting by setting: (dose: 0.25 mg/kg/injection, schedule: Q07DX002 (ip), vehicle: Klucel (hydroxypropylcellulose) (HPC)) 127 % of control; (dose: 1.0 mg/kg/injection, schedule: Q07DX002 (ip), vehicle: Klucel (hydroxypropylcellulose) (HPC)) 129 % of control [9 of 10 alive on day 20]. Besides, the survivor count (dose: 4.0 mg/kg/injection, schedule: Q07DX002 (ip), vehicle: Klucel (hydroxypropylcellulose) (HPC)) was 2 of 10 on day 20.

Take `Nc1ccc(S(N)(=O)=O)cc1`: the T/C under setting [5] is 129 % of control.

With `ClCCCN1CCN(CCCCl)CC1`, the T/C is 135 % of control (dose: 12.5 mg/kg/injection, schedule: Q07DX002 (ip), vehicle: distilled water + alcohol) and 135 % of control (dose: 25.0 mg/kg/injection, schedule: Q07DX002 (ip), vehicle: distilled water + alcohol). Also, the survivor count (dose: 200.0 mg/kg/injection, schedule: Q07DX002 (ip), vehicle: distilled water + alcohol) is 0 of 10 on day 20 and the survivor count (dose: 400.0 mg/kg/injection, schedule: Q07DX002 (ip), vehicle: distilled water + alcohol) was 0 of 10 on day 20.

For `Nc1cc2[nH]cnc2c(=O)[nH]1`, where the note is “dose: 50.0 mg/kg/injection, schedule: Q07DX002 (ip), vehicle: saline”, the T/C was 131 % of control.

On to `Nc1ccc2nc3c4ccccc4c(O)n3nc2c1`, for which, under setting [6], the survivor count is on record as 0 of 10 on day 20.

Regarding `CC(C)(C)N1CC1CNC(=O)C(=O)NCC1CN1C(C)(C)C` (centres undefined), the T/C (dose: 12.5 mg/kg/injection, schedule: Q07DX002 (ip), vehicle: saline with Tween-80) was 62 [9 of 10 alive on day 20], 81, 103, 106 % of control and the T/C under setting [7] is 54, 64, 98, 100 % of control. Further, the survivor count (dose: 100.0 mg/kg/injection, schedule: Q07DX002 (ip), vehicle: saline with Tween-80) is 0 of 9 on day 20 and 4 of 10 on day 20.

Consider `O=C(Nc1cccc2c(OC(=O)C(Cl)Cl)c(N=Nc3ccc(S(=O)(=O)Nc4nccs4)cc3)cc(N=Nc3ccc(S(=O)(=O)Nc4nccs4)cc3)c12)C(Cl)Cl` (tested in a mixture with another compound), for which the survivor count under setting [5] is recorded as 1 of 10 on day 20.

As to `CC(C)NCC(O)COc1ccc(O)c(O)c1` (centres undefined), the survivor count is given as 0 of 10 on day 20 (dose: 400.0 mg/kg/injection, schedule: Q07DX002 (ip), vehicle: saline) and 0 of 10 on day 20 (dose: 800.0 mg/kg/injection, schedule: Q07DX002 (ip), vehicle: saline).

Take `O=C(O)c1c2c(nc3ccccc13)Cc1ccccc1-2`: the survivor count is 4 of 10 on day 20 (dose: 100.0 mg/kg/injection, schedule: Q07DX002 (ip), vehicle: water); 0 of 10 on day 20 (dose: 200.0 mg/kg/injection, schedule: Q07DX002 (ip), vehicle: water); 0 of 10 on day 20 and 1 of 10 on day 20 (dose: 400.0 mg/kg/injection, schedule: Q07DX002 (ip), vehicle: water).

Turning to `O=C1c2ccccc2C(=O)c2c3c(cc(NCCNCCO)c21)N(CCO)CCN3`, the T/C is 129 % of control (dose: 25.0 mg/kg/injection, schedule: Q07DX002 (ip), vehicle: DMSO) and 128 % of control (dose: 50.0 mg/kg/injection, schedule: Q07DX002 (ip), vehicle: DMSO). Further, the survivor count (dose: 800.0 mg/kg/injection, schedule: Q07DX002 (ip), vehicle: DMSO) is 4 of 10 on day 20.

As for `COC1=C(OC)C(=O)C(C/C=C(\C)CC/C=C(\C)CC/C=C(\C)CC/C=C(\C)CC/C=C(\C)CC/C=C(\C)CC/C=C(\C)CC/C=C(\C)CC/C=C(\C)CCC=C(C)C)=C(C)C1=O`, the T/C under setting [7] was 128 % of control.

On to `CC(/C=C/c1ccccc1)=Nc1ccccc1`, for which the T/C under setting [5] was 146 % of control. In addition, the survivor count under setting [6] was 4 of 10 on day 20.

With `CCN(CC)CCC(=O)c1ccccc1`, the T/C is, setting by setting: (dose: 6.25 mg/kg/injection, schedule: Q07DX002 (ip), vehicle: saline) 142 % of control; (dose: 100.0 mg/kg/injection, schedule: Q07DX002 (ip), vehicle: saline) 139 % of control; (dose: 100.0 mg/kg/injection, schedule: Q07DX002 (ip), vehicle: suspension in saline) 135 % of control. Moreover, the survivor count is 0 of 10 on day 20 and 3 of 10 on day 20 (dose: 200.0 mg/kg/injection, schedule: Q07DX002 (ip), vehicle: saline); 0 of 10 on day 20 (dose: 200.0 mg/kg/injection, schedule: Q07DX002 (ip), vehicle: suspension in saline).

Take `O=C1NC(=O)NC(C(=O)O)N1`: the survivor count (dose: 1800.0 mg/kg/injection, schedule: Q01DX001 (ip), vehicle: DMSO) is listed as 5 of 10 on day 20.

For the compound `Nc1ncnc2c1ncn2C1C=C(CO)C(O)C1O` (centres undefined), the survivor count under setting [8] is on record as 4 of 10 on day 20; the survivor count (dose: 16.0 mg/kg/injection, schedule: Q07DX002 (ip), vehicle: saline) was 0 of 10 on day 20; the survivor count (dose: 32.0 mg/kg/injection, schedule: Q07DX002 (ip), vehicle: saline) is listed as 0 of 10 on day 20.

With `CNC(=O)O/N=C(\CN=[N+]=[N-])C(C)(C)C`, the T/C (dose: 0.5 mg/kg/injection, schedule: Q07DX002 (ip), vehicle: saline) was 136 % of control. In addition, the survivor count runs as follows: (dose: 2.0 mg/kg/injection, schedule: Q07DX002 (ip), vehicle: saline) 0 of 10 on day 20; (dose: 4.0 mg/kg/injection, schedule: Q07DX002 (ip), vehicle: saline) 0 of 10 on day 20; under setting [8], 0 of 10 on day 20.

(Values after PubChem BioAssay AID212 (DTP/NCI, 2004).)
